In all, about 33,000 sequences were measured (“E-score (-0.5 to 0.5)”: median about -0.0034, highest 2% from about 0.25 on). The list shows a part of the results.
What follows are sequences tested against T1, Yap3 (UniProt P38749) (assay: PBM E-score (8-mer binding enrichment) (E-score (-0.5 to 0.5)); higher = stronger / more preferred TF binding). Settings: protein concentration: 100 nM; construct: GST-full length.
T1 sequence: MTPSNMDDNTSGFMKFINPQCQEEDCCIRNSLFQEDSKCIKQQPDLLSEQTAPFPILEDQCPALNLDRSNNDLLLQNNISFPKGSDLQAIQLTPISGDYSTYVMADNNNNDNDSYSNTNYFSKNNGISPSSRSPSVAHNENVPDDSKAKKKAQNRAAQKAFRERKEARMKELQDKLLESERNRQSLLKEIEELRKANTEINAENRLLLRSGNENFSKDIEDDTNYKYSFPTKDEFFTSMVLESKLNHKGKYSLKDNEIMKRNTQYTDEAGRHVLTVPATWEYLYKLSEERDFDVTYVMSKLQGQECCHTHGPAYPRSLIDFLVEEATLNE
In short: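 Using PURExpress in vitro transcription/translation, GST-tagged yeast transcription factors were made in full-length or DNA-binding-domain form. These were applied at about 100-200 nM to double-stranded universal all-10-mer Agilent arrays, and bound protein was detected with fluorescent anti-GST. Scans were normalised with masliner before the Universal PBM Analysis Suite assigned E-scores to ungapped eight-base words pooled with their reverse complements.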

| Sequence | PBM E-score |
| --- | --- |
| ACCTTTGG | -0.232 |
| GAGTTAGC | 0.0825 |
| AGGGGACT | -0.237 |
| CGATAGAC | -0.0118 |
| ACTAGTGC | -0.00191 |
| ACACTAAC | 0.116 |
| CACACCCA | 0.137 |
| ATTTTTGG | 0.118 |
| CCGACGTA | -0.1 |
| CCTCCTAC | -0.225 |
| GTACTAAA | 0.21 |
| GTCTCCAA | 0.0817 |
| CCACTCAG | -0.157 |
| CTTACAGC | -0.0539 |
| CAACGGAG | -0.0876 |
| CCCCGGAC | -0.277 |
| CACCCGGA | -0.00575 |
| GGAGGGAC | -0.284 |
| CAGGACTG | -0.282 |
| ATCGCCCC | -0.215 |
| CTTACTAC | 0.211 |
| AGTGCGTC | -0.0649 |
| CGCGTACA | -0.00198 |
| GACCATAA | 0.0774 |
| CGTAGACC | -0.271 |

| Sequence | PBM E-score |
| --- | --- |
| TAAAGGAA | 0.034 |
| AACCAAGC | 0.0637 |
| ATGCGTGA | 0.138 |
| ATGCTGTC | -0.0733 |
| GATTGTCC | -0.00874 |
| GCTCACGA | -0.099 |
| CCGCCGGA | -0.162 |
| CTATGGTA | -0.0251 |
| ACAATATC | 0.153 |
| CGGTCGGA | -0.143 |
| ACAGTTAC | 0.115 |
| AACCACGC | -0.142 |
| CTATTGAC | 0.0296 |
| CGTAAGAA | -0.0102 |
| AAGGTAGC | -0.212 |
| CCTGCACG | -0.093 |
| ATGCTACA | -0.121 |
| GATAATCC | 0.0355 |
| AGTATAGC | -0.0055 |
| AGAGCTGC | -0.19 |
| ATAGGGCG | -0.184 |
| AGCGTTCG | -0.0836 |
| ACAGGTGG | -0.149 |
| CGCCCACA | 0.181 |
| ATAAGCCA | 0.0193 |

| Sequence | PBM E-score |
| --- | --- |
| ACCATATG | 0.122 |
| TAGCCCCA | 0.00033 |
| AGGTCCAG | -0.0912 |
| CAGAAGAC | 0.0205 |
| CGCGTGCC | 0.0402 |
| AAACTCGA | 0.122 |
| CTGCTCGA | -0.173 |
| GTGAGGCA | 0.0355 |
| CTAAGGAA | 0.0232 |
| CCCCCTCC | -0.442 |
| ACACATGG | 0.0968 |
| TCCCCTCA | 0.077 |
| GGAGAAGA | -0.148 |
| AAGTCCCT | -0.278 |
| CGCCGTAA | 0.168 |
| GCGTTTAC | -0.0973 |
| CTTTGCTA | 0.0895 |
| GCTTAAAC | -0.171 |
| CCGCATAG | 0.036 |
| CTCGCCAA | 0.00948 |
| ATTTGGTG | 0.0776 |
| ATTCCGTA | 0.155 |
| ATCACCGG | -0.0609 |
| ACCATGTA | 0.105 |
| GTAATGAA | 0.246 |

| Sequence | PBM E-score |
| --- | --- |
| AAACCATT | 0.0991 |
| CATTACTC | 0.221 |
| AGGAGCAG | -0.222 |
| ATGTGCCC | 0.0279 |
| CCTGAGTC | -0.104 |
| GAGAACGC | -0.146 |
| CTGAATCC | -0.0348 |
| GGGCGGCA | 0.0126 |
| CGGTTTGC | -0.0876 |
| AAAGATTG | 0.0264 |
| ACTTAGGG | -0.112 |
| GTCATTTA | 0.0761 |
| CATGGTGC | -0.124 |
| AGGAATCG | -0.00151 |
| CCGAGCGG | -0.228 |
| AGCCTCAG | -0.139 |
| AAGATCCC | -0.0723 |
| AGGCGATC | -0.164 |
| ACCGCGAT | 0.132 |
| CCACATGC | 0.112 |
| GAGTTCAA | 0.034 |
| ATTACACA | 0.255 |
| ATTGGTGA | 0.067 |
| CGTGGTGC | -0.282 |
| GGATGAGA | -0.0553 |

Look-ups from the list:
PBM E-score, CTGAATCC reads -0.0348
PBM E-score, GGATGAGA reads -0.0553
PBM E-score, ACTTAGGG reads -0.112
PBM E-score, GAGTTCAA reads 0.034

(listing goes on)

| Sequence | PBM E-score |
| --- | --- |
| GCGGCCGA | -0.0777 |
| CATCGTCC | -0.0241 |
| CAGGAGCA | -0.018 |
| ACACAGCA | 0.0489 |
| AGCGACTG | -0.0873 |
| TAAATAGA | -0.0374 |
| AAGACTGC | -0.0146 |
| AGGGTTTG | 0.0451 |
| CACCGCGC | -0.0275 |
| AAGTTTAG | 0.0681 |
| ATTCTGAA | 0.105 |
| CGGTTTGA | -0.0694 |
| ATCACACG | 0.0691 |
| ATCACGAC | 0.0721 |
| CTGATCAG | 0.116 |
| AACAATAG | 0.0572 |
| GCACTTGA | 0.0122 |
| CGTATCAA | 0.0507 |
| AGATTCTC | -0.111 |
| AATGCAGG | 0.0911 |
| ACATAAGA | 0.185 |
| ATTGTCGA | 0.084 |
| CACATGTC | -0.0671 |
| ATGCGCTC | 0.0474 |
| ACACCTTA | 0.0773 |

| Sequence | PBM E-score |
| --- | --- |
| TGATTCCA | -0.0833 |
| AGATGCAA | -0.0295 |
| AACAGCAG | 0.0453 |
| AACAGACA | 0.168 |
| GACAGACC | -0.00743 |
| CAATTCCG | 0.0319 |
| TACTGCCA | 0.00049 |
| CCCGAAGC | -0.119 |
| GACCCAGA | -0.141 |
| CACTTATG | 0.144 |
| GATCCTGC | -0.0874 |
| AGAGTCCT | -0.146 |
| ACCAGAGT | -0.152 |
| GCGCCAAC | 0.0226 |
| ATTAAAAC | 0.236 |
| CGCGGGAG | -0.242 |
| TCTTCTCA | 0.0358 |
| GTGGCACA | -0.127 |
| AGGTTGGC | -0.133 |
| ACTACGAT | 0.0434 |
| AGTGCGCA | 0.0979 |
| CAGGAGCC | -0.24 |
| ATGCGCCG | 0.00281 |
| TAGCCCGA | 0.0136 |
| CCGATGAA | 0.00817 |

| Sequence | PBM E-score |
| --- | --- |
| CTTTTTTC | 0.141 |
| GCCGGCGC | -0.0852 |
| CTGGTTCC | 0.0129 |
| AGTGTACC | -0.0543 |
| ACCTGCTA | 0.00311 |
| GCCTGGAC | -0.205 |
| AAGGTTTC | 0.0624 |
| ACTTATCC | 0.165 |
| AGTTGAGG | -0.119 |
| AGACTAAG | -0.0969 |
| ATTTCACG | 0.0464 |
| AGAGAAGG | -0.229 |
| ATTGAATC | 0.0178 |
| CGGAACCC | -0.0816 |
| GAGCTTGA | -0.129 |
| AGACAAGG | -0.26 |
| ATGGCAGG | -0.0286 |
| GTCCGCAA | 0.0604 |
| GGAGTCAC | -0.255 |
| GCCTTTCA | -0.0463 |
| CGCAGCTC | -0.0466 |
| ATGGGCGA | -0.144 |

For convenience, some entries already given:

| Sequence | PBM E-score |
| --- | --- |
| ATTGGTGA | 0.067 |
| CGTGGTGC | -0.282 |
| GGATGAGA | -0.0553 |

Part of the list above, tab-delimited:
Sequence	PBM E-score
AGTGCGCA	0.0979
CAGGAGCC	-0.24
ATGCGCCG	0.00281

Reference: the supplement of paper PMC3334620
